This test deals with glial fibrillary acidic protein (rat (endogenous in supraoptic nucleus tissue)) (UniProt P47819). Briefly: co-IP; anti-GFAP antibody (sc-33673) added to 600 µg of precleared SON tissue lysate, overnight at 4 °C, captured on protein A/G magnetic beads, Western blot; brain slices treated beforehand as control, OGD, TGN-020 (10 µM) or OGD + TGN-020. (In general: Immunoblotting shows a protein as a band on a membrane.)

Chains of the proteins cited; added tags and fusions are not shown.
UniProt P47819: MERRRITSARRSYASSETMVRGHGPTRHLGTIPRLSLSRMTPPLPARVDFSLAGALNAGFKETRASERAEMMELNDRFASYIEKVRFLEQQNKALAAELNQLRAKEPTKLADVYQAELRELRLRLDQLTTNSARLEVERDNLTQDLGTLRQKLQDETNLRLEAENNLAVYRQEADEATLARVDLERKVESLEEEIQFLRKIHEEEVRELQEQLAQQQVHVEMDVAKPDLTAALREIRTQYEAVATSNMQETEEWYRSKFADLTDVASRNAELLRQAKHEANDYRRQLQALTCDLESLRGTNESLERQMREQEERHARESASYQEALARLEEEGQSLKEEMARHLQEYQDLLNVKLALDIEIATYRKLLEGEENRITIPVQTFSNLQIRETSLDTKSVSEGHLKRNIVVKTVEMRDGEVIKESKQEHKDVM
UniProt P47863: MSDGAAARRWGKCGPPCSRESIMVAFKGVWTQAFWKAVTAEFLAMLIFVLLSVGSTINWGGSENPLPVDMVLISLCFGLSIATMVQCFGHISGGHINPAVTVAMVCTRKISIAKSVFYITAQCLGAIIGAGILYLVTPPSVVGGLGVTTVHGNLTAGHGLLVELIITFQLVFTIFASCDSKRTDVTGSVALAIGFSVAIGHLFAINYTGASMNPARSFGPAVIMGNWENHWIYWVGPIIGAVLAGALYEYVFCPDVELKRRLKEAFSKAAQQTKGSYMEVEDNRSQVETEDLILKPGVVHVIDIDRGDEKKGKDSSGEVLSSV

No constants are given. Whether binding was seen depends on the method and setting. Binding seen in cells or lysates may run through a third protein. Some binding calls cover weakened binding; strength is not graded here.

Take aquaporin 4 (from UniProt P47863 1-323): the binding result is listed as “binds”.
